Reference: US12522562B2, “Intestine-specific partial agonists of farnesoid X receptor and uses thereof” (EWHA DrugDesignHouse Co., Ltd., priority 2022, dated 2026)
“And” between values parts separate entries of the source, which are not always exact repeats. Identical values can stand only once. At least one read-out could not be matched to a standard name with certainty.

Assays:
Test in all cases: Nuclear receptor selectivity panel (PathHunter NHR protein interaction assay)
PPARα = target: T1, PPARα (Homo sapiens, UniProt Q07869); settings: relative to GW7647
T1 sequence (Q07869 1-468): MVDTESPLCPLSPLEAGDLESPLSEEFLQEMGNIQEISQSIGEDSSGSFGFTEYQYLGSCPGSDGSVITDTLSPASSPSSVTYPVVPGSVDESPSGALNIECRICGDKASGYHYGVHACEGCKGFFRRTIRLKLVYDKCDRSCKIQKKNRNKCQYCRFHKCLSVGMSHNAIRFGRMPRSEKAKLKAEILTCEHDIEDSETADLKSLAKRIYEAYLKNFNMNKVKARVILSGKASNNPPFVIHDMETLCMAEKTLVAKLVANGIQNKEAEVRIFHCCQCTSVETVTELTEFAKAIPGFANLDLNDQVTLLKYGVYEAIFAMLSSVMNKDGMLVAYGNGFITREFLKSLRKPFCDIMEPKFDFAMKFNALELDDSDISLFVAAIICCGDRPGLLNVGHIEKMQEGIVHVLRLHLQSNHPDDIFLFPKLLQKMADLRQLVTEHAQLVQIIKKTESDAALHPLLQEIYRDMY

PPARδ = target: T2, PPARδ (Homo sapiens, UniProt Q03181); settings: relative to L-165,041
T2 sequence (Q03181 1-441): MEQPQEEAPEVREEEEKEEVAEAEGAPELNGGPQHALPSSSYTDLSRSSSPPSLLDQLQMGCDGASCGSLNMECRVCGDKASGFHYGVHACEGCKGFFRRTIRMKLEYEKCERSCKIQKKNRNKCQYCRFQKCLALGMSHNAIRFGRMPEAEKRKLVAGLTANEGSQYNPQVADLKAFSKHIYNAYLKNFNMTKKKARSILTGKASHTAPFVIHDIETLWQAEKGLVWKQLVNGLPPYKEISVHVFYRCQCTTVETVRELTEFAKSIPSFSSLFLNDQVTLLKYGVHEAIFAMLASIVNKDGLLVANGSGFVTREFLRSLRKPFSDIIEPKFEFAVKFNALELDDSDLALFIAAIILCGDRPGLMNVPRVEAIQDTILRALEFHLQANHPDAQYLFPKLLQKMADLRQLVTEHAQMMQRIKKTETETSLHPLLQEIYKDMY

RXRα = target: T3, RXRα (Homo sapiens, UniProt P19793); settings: relative to 9-cis-retinoic acid
T3 sequence (P19793 1-462): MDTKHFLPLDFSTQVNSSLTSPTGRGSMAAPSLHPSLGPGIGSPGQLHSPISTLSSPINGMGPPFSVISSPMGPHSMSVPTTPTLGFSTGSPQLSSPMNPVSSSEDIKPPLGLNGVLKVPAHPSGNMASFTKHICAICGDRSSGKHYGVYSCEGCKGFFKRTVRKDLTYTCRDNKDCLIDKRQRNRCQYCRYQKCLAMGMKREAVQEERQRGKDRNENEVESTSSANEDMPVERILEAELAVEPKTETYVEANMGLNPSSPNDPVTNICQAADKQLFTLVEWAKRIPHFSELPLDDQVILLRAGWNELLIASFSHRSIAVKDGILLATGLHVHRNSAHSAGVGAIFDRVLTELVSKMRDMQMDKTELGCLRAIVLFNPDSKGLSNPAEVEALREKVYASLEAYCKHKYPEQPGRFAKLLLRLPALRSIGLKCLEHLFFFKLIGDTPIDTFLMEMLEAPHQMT

Structure (SMILES): COC(=O)/C=C/c1cccc(N(Cc2ccc(-c3ccc(N(C)C)cc3)c(C#N)c2)C(=O)C2CCCCC2)c1 [Example 4, (E)-3-(3-((2-cyano-4′-dimethylaminobiphenyl-4-ylmethyl)cyclohexanecarbonylamino)phenyl)acrylic Acid Methyl Ester]
- % max. rel. efficacy at 100 uM (PPARα): < 3% and 0%
- % max. rel. efficacy at 100 uM (PPARδ): < 3% and −3%
- % max. rel. efficacy at 100 uM (RXRα): < 3% and −2%
